{"source": "PubChem BioAssay AID493246 (Drosophila RNAi Screening Center, 2011)", "purpose": "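Genome-wide search for dsRNAs that reduce cell number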 (primary screen)", "cell system": "Drosophila Kc and S2R+ cells", "reagents": "long dsRNA against Drosophila genes", "measured": "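Raw, unnormalised count of remaining cells in each well; per-plate z-scores of cell number underlie the calls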", "scale": "Kc cell number and S2R+ cell number: higher = more cells remaining", "rule for the call": "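Counted as a hit if cell number falls by a z-score of at least 3 within its plate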", "note": "The deposit covers about 21,000 reagents; this is a random part of those that have a named target and a result. In the full data, 429 (2%) got an active call. 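Values are raw and not normalised between plates; calls rest on per-plate z-scores that were not deposited.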 A plus sign joins genes that one reagent is predicted to hit. Reagent sequences are not shown. Not stated in the record: the amount of reagent, the time to read-out."}
{"target": "CG14374 (GeneID 50026)", "amplicon": "DRSC14834", "Kc cell number, rep 1": 1.21e6, "Kc cell number, rep 2": 1.21e6, "S2R+ cell number, rep 1": 1.22e6, "S2R+ cell number, rep 2": 1.34e6, "Call": "inactive"}
{"target": "SmydA-6 (GeneID 36917)", "amplicon": "DRSC07341", "Kc cell number, rep 1": 1.52e6, "Kc cell number, rep 2": 1.50e6, "S2R+ cell number, rep 1": 1.23e6, "S2R+ cell number, rep 2": 1.36e6, "Call": "inactive"}
{"target": "Chd64 (GeneID 38490)", "amplicon": "DRSC08649", "Kc cell number, rep 1": 1.27e6, "Kc cell number, rep 2": 1.39e6, "S2R+ cell number, rep 1": 1.14e6, "S2R+ cell number, rep 2": 1.12e6, "Call": "inactive"}
{"target": "alpha-Est6 (GeneID 40902)", "amplicon": "DRSC12618", "Kc cell number, rep 1": 1.60e6, "Kc cell number, rep 2": 1.58e6, "S2R+ cell number, rep 1": 1.17e6, "S2R+ cell number, rep 2": 1.27e6, "Call": "inactive"}
{"target": "CG18268 + CG3014", "amplicon": "DRSC15319", "Kc cell number, rep 1": 1.43e6, "Kc cell number, rep 2": 1.51e6, "S2R+ cell number, rep 1": 1.23e6, "S2R+ cell number, rep 2": 1.33e6, "Call": "inactive"}
{"target": "CG14966 (GeneID 38390)", "amplicon": "DRSC08425", "Kc cell number, rep 1": 1.56e6, "Kc cell number, rep 2": 1.46e6, "S2R+ cell number, rep 1": 1.10e6, "S2R+ cell number, rep 2": 1.31e6, "Call": "inactive"}
{"target": "CG30109 (GeneID 246461)", "amplicon": "DRSC05675", "Kc cell number, rep 1": 5.65e5, "S2R+ cell number, rep 1": 8.37e5, "Call": "inactive"}
{"target": "CR18228 (GeneID 8674096)", "amplicon": "DRSC15317", "Kc cell number, rep 1": 1.65e6, "Kc cell number, rep 2": 1.78e6, "S2R+ cell number, rep 1": 1.34e6, "S2R+ cell number, rep 2": 1.55e6, "Call": "inactive"}
{"target": "D19B (GeneID 38717)", "amplicon": "DRSC11134", "Kc cell number, rep 1": 1.66e6, "Kc cell number, rep 2": 1.62e6, "S2R+ cell number, rep 1": 8.86e5, "S2R+ cell number, rep 2": 9.64e5, "Call": "inactive"}
{"target": "GNBP3 (GeneID 39020)", "amplicon": "DRSC11170", "Kc cell number, rep 1": 1.52e6, "Kc cell number, rep 2": 1.54e6, "S2R+ cell number, rep 1": 1.22e6, "S2R+ cell number, rep 2": 1.32e6, "Call": "inactive"}
{"target": "CG4404 (GeneID 32241)", "amplicon": "DRSC19897", "Kc cell number, rep 1": 1.49e6, "Kc cell number, rep 2": 1.48e6, "S2R+ cell number, rep 1": 9.11e5, "S2R+ cell number, rep 2": 9.87e5, "Call": "inactive"}
{"target": "CG3894 (GeneID 37959)", "amplicon": "DRSC01762", "Kc cell number, rep 1": 5.20e5, "S2R+ cell number, rep 1": 8.41e5, "Call": "inactive"}
{"target": "CG3894 (GeneID 37959)", "amplicon": "DRSC04012", "Kc cell number, rep 1": 1.43e6, "Kc cell number, rep 2": 1.49e6, "S2R+ cell number, rep 1": 9.88e5, "S2R+ cell number, rep 2": 1.09e6, "Call": "inactive"}
{"target": "CG3894 (GeneID 37959)", "amplicon": "DRSC04429", "Kc cell number, rep 1": 1.70e6, "Kc cell number, rep 2": 1.68e6, "S2R+ cell number, rep 1": 1.35e6, "S2R+ cell number, rep 2": 1.30e6, "Call": "inactive"}

Just “S2R+ cell number, rep 2” (2 entries from above):
alpha-Est6 (GeneID 40902) [DRSC12618]	1.27e6
CG18268 + CG3014 [DRSC15319]	1.33e6
